# Primary screen of a compound library

Measurements from “University of Dundee, Small-Polar-MMV Screening Library” (2021), ChEMBL document CHEMBL3988442.

Each number is a percent effect as filed. The controls that fix the scale are not given in the record; negative values are as filed. This is an unselected part of the compounds tested.

A: 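Whole-parasite assay of Trypanosoma brucei over 72 hours; the read-out is not stated. Concentration: 30 µM. Higher reads as stronger inhibition (inferred: compounds with an IC50 in retests scored well above the rest). Values scatter widely below zero; nearly all retest evidence comes from the higher of the two concentrations used. Of about 64,000 compounds tested this way, about 940 (1.5%) reached 50% or more in at least one test.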
B: 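Cell assay of Leishmania donovani living inside macrophages; the read-out is not stated. Concentration: 30 µM. The record gives no direction; compounds that gave an IC50 in retests scored well above the rest, so higher reads as stronger inhibition. Size under these conditions: about 69,000 compounds, about 1,000 of them at 50% or above in at least one test.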

Compound	A	B
CC(NCc1cccc(Cl)c1)c1ccc(OCC(=O)NC2CC2)cc1 (centres unmarked)	1.7	32.64
c1ccc(-c2noc(CNC3CCCN(c4cccnn4)C3)n2)nc1 (centres unmarked)	-15.93	6.579
CCN(Cc1cccc(Cl)c1)Cc1ncc(C(C)(C)C)o1	-76.17	12.9
NC(=O)[C@@H]1Cc2ccccc2CN1CCC(=O)N1CCOCC1	-50.93	29.7
[H][C@]12CC=C(CN3CCCn4nc(CNS(C)(=O)=O)cc4C3)[C@]([H])(C1)C2(C)C	-39.05	-8.01
CCOCC1CN(CCc2ccccc2)Cc2c1cnn2C (centres unmarked)	62.26	-50.6
Cc1nc(CN(C)C2CCN(Cc3ccno3)C2)no1 (centres unmarked)	-74.6	-6.305
COCCN1CCN(CC2(O)CCCCC2)CC1	-37.34	-4.305
Cc1ccc(OC(C)CNC(=O)c2c[nH]nn2)cc1 (centres unmarked)	-26.75	10.11
O=C(c1cnc(-c2cccs2)s1)N1CCCC(n2ccnc2)C1 (centres unmarked)	16.28	26.41
Cc1ccc(CCNC(=O)Cn2nc(C)n(Cc3ccccc3)c2=O)o1	5.68	21.45
CC(C)(C)C(NCC(=O)N1CCNC(=O)C1)c1ccccc1 (centres unmarked)	-32.1	-12.17
COc1cc2c(cc1OC)CN(Cc1ncccc1C(=O)O)CC2	-8.131	11.37
C=C/C=c1\c(=C/C)oc2c(NCc3ccccc3)ncnc12	-43.72	48.13

2 of the entries, repeated:

Compound	A	B
CC(C)(C)C(NCC(=O)N1CCNC(=O)C1)c1ccccc1 (centres unmarked)	-32.1	-12.17
CCOCC1CN(CCc2ccccc2)Cc2c1cnn2C (centres unmarked)	62.26	-50.6